Experimental data: PubChem BioAssay AID1159578 (Peter MacCallum Cancer Centre, 2015)

- Test: 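Knock-downs that alter how fast lymphatic endothelial cells migrate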 (primary screen)
- Cells: human lymphatic endothelial cells
- Knock-down reagent: siRNA pool against human genes, 40 nM
- Timing: 48 h after transfection
- Detection: 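Cells stained with dye and imaged after a scratch; covered wound area and nuclei counted, duplicates averaged, migration set against mock wells and turned into a robust z-score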
- Scale: migration robust z-score: higher = faster migration into the scratch; migration relative to mock: higher = more scratch area covered than mock; nuclei per well: higher = more cells in the well
- Rule for the call: 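Pools averaging fewer than 3300 nuclei are never called; remaining pools count as changed when migration robust z lies outside -2 to 2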
- Meaning of the calls: active = migration changed; inactive = no migration change, or too few cells
This is an unselected part of about 18,000 reagents. Of all reagents, about 1,030 (5.7%) were called active. 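Inactive calls also include pools with fewer than 3300 nuclei, whose migration was not assessed.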 Raw values vary from plate to plate and are shown uncorrected. Entries without a mark were called inactive. Reagent sequences are not shown.

| gene | PubChem SID | migration robust z-score | migration class with cell-count check | migration relative to mock | nuclei per well, duplicate mean |
| --- | --- | --- | --- | --- | --- |
| NDC80 (NDC80 kinetochore complex component) | SID255355051 | -0.74 | migration z between -2 and 2; enough cells | 0.69 | 5548 |
| SPHKAP (SPHK1 interactor, AKAP domain containing) | SID255360745 | -1.34 | migration z between -2 and 2; enough cells | 0.53 | 5036 |
| RYR2 (ryanodine receptor 2) | SID255352257 | -0.13 | migration z between -2 and 2; enough cells | 0.78 | 5980 |
| FAM234B (family with sequence similarity 234 member B) | SID255359506 | -0.06 | migration z between -2 and 2; enough cells | 0.88 | 4439 |
| DCAKD (dephospho-CoA kinase domain containing) | SID255360537 | -0.56 | migration z between -2 and 2; enough cells | 0.74 | 5086 |
| ATOH8 (atonal bHLH transcription factor 8) | SID255361572 | -0.56 | migration z between -2 and 2; enough cells | 0.74 | 6174 |
| CACNB1 (calcium voltage-gated channel auxiliary subunit beta 1) | SID255348656 | -0.65 | migration z between -2 and 2; enough cells | 0.68 | 5206 |
| CRYGN (crystallin gamma N) | SID255363607 | -0.89 | migration z between -2 and 2; enough cells | 0.66 | 5911 |
| SPATA18 (spermatogenesis associated 18) | SID255362928 | 0.56 | migration z between -2 and 2; enough cells | 1.02 | 4452 |
| APOOL (apolipoprotein O like) | SID255363072 | -0.58 | migration z between -2 and 2; enough cells | 0.74 | 5016 |
| MPL (MPL proto-oncogene, thrombopoietin receptor) | SID255351019 | -1.12 | migration z between -2 and 2; enough cells | 0.59 | 6260 |
| PNMA5 (PNMA family member 5) | SID255362258 | 0.48 | migration z between -2 and 2; enough cells | 1.01 | 5358 |
| AP1B1 (adaptor related protein complex 1 subunit beta 1) | SID255348223 | -1.5 | migration z between -2 and 2; enough cells | 0.5 | 4849 |
| HDHD3 (haloacid dehalogenase like hydrolase domain containing 3) | SID255360984 | -0.26 | migration z between -2 and 2; enough cells | 0.75 | 6077 |
| ADORA3 (adenosine A3 receptor) | SID255348204 | -1.04 | migration z between -2 and 2; enough cells | 0.6 | 5938 |
| HAUS2 (HAUS augmin like complex subunit 2) | SID255358442 | -1.17 | migration z between -2 and 2; enough cells | 0.58 | 4892 |
| LRRIQ1 (leucine rich repeats and IQ motif containing 1) | SID255361203 | 1.21 | migration z between -2 and 2; enough cells | 1.2 | 5818 |
| ATG5 (autophagy related 5) | SID255354304 | -0.8 | migration z between -2 and 2; enough cells | 0.65 | 5570 |
| PCNA (proliferating cell nuclear antigen) | SID255351447 | -1.9 | migration z between -2 and 2; enough cells | 0.44 | 5124 |
| BTBD17 (BTB domain containing 17) | SID255365490 | 0.69 | migration z between -2 and 2; enough cells | 1.06 | 6252 |
| PALD1 (phosphatase domain containing paladin 1) | SID255356944 | 0.83 | migration z between -2 and 2; enough cells | 0.96 | 4486 |
| STX17 (syntaxin 17) | SID255358350 | 0.62 | migration z between -2 and 2; enough cells | 1.05 | 5063 |
| TMEM51 (transmembrane protein 51) | SID255358403 | -1.09 | migration z between -2 and 2; enough cells | 0.6 | 5822 |
| PBX2 (PBX homeobox 2) | SID255351430 | 0.8 | migration z between -2 and 2; enough cells | 0.96 | 6054 |
| DNAJC30 (DnaJ heat shock protein family (Hsp40) member C30) | SID255361293 | -1.21 | migration z between -2 and 2; enough cells | 0.57 | 5758 |
| FAM151B (family with sequence similarity 151 member B) | SID255363858 | 0.16 | migration z between -2 and 2; enough cells | 0.92 | 5564 |
| LMNB1 (lamin B1) | SID255350775 | -2.23 (active) | migration z below -2; enough cells | 0.31 | 5986 |
| RB1CC1 (RB1 inducible coiled-coil 1) | SID255354584 | -2.34 (active) | migration z below -2; enough cells | 0.28 | 3744 |
| KCTD9 (potassium channel tetramerization domain containing 9) | SID255358166 | -1.84 | migration z between -2 and 2; enough cells | 0.4 | 5178 |
| PLPBP (pyridoxal phosphate binding protein) | SID255355682 | -2.02 (active) | migration z below -2; enough cells | 0.42 | 4098 |
| TCF7 (transcription factor 7) | SID255352779 | 0.08 | migration z between -2 and 2; enough cells | 0.82 | 5284 |
| CHEK1 (checkpoint kinase 1) | SID255348899 | -2.21 | under 3300 nuclei; migration not judged | 0.38 | 3085 |
| AP3B1 (adaptor related protein complex 3 subunit beta 1) | SID255353637 | -1.45 | migration z between -2 and 2; enough cells | 0.52 | 4750 |
| PPRC1 (PPARG related coactivator 1) | SID255355976 | 1.11 | migration z between -2 and 2; enough cells | 1.18 | 5095 |
| TEX35 (testis expressed 35) | SID255361174 | -0.7 | migration z between -2 and 2; enough cells | 0.7 | 5977 |
| SCAMP2 | SID255354781 | 1.46 | migration z between -2 and 2; enough cells | 1.08 | 4396 |
| TRIP6 (thyroid hormone receptor interactor 6) | SID255352968 | -0.12 | migration z between -2 and 2; enough cells | 0.86 | 4401 |
| RIC1 (RIC1 partner of RAB6A GEF complex) | SID255359491 | -1.45 | migration z between -2 and 2; enough cells | 0.51 | 5438 |
| NRROS (negative regulator of reactive oxygen species) | SID255365371 | -0.02 | migration z between -2 and 2; enough cells | 0.88 | 5722 |
| SRCAP (Snf2 related CREBBP activator protein) | SID255355387 | 0.2 | migration z between -2 and 2; enough cells | 0.84 | 4286 |
| GNL3 (G protein nucleolar 3) | SID255356777 | -0.79 | migration z between -2 and 2; enough cells | 0.69 | 5091 |
| KLK11 (kallikrein related peptidase 11) | SID255355521 | -2.7 (active) | migration z below -2; enough cells | 0.29 | 4930 |
| CTAG1B (cancer/testis antigen 1B) | SID255349152 | -0.05 | migration z between -2 and 2; enough cells | 0.88 | 6190 |
| SMCO1 (single-pass membrane protein with coiled-coil domains 1) | SID255364508 | 0.32 | migration z between -2 and 2; enough cells | 0.97 | 7228 |
| MNDA (myeloid cell nuclear differentiation antigen) | SID255351009 | 0.72 | migration z between -2 and 2; enough cells | 1.07 | 4736 |
| MTA1 (metastasis associated 1) | SID255354043 | 0 | migration z between -2 and 2; enough cells | 0.8 | 5768 |

The list goes on; the last 8 above are carried over.
| gene | PubChem SID | migration robust z-score | migration class with cell-count check | migration relative to mock | nuclei per well, duplicate mean |
| --- | --- | --- | --- | --- | --- |
| NRROS (negative regulator of reactive oxygen species) | SID255365371 | -0.02 | migration z between -2 and 2; enough cells | 0.88 | 5722 |
| SRCAP (Snf2 related CREBBP activator protein) | SID255355387 | 0.2 | migration z between -2 and 2; enough cells | 0.84 | 4286 |
| GNL3 (G protein nucleolar 3) | SID255356777 | -0.79 | migration z between -2 and 2; enough cells | 0.69 | 5091 |
| KLK11 (kallikrein related peptidase 11) | SID255355521 | -2.7 (active) | migration z below -2; enough cells | 0.29 | 4930 |
| CTAG1B (cancer/testis antigen 1B) | SID255349152 | -0.05 | migration z between -2 and 2; enough cells | 0.88 | 6190 |
| SMCO1 (single-pass membrane protein with coiled-coil domains 1) | SID255364508 | 0.32 | migration z between -2 and 2; enough cells | 0.97 | 7228 |
| MNDA (myeloid cell nuclear differentiation antigen) | SID255351009 | 0.72 | migration z between -2 and 2; enough cells | 1.07 | 4736 |
| MTA1 (metastasis associated 1) | SID255354043 | 0 | migration z between -2 and 2; enough cells | 0.8 | 5768 |
| GJB6 (gap junction protein beta 6) | SID255355365 | -3.61 (active) | migration z below -2; enough cells | 0.11 | 5986 |
| MMP15 (matrix metallopeptidase 15) | SID255351002 | -0.5 | migration z between -2 and 2; enough cells | 0.71 | 5418 |
| METTL17 (methyltransferase like 17) | SID255359968 | -1.03 | migration z between -2 and 2; enough cells | 0.62 | 6631 |
| MAP3K1 (mitogen-activated protein kinase kinase kinase 1) | SID255350930 | -0.86 | migration z between -2 and 2; enough cells | 0.64 | 6457 |
| ZNF767P (zinc finger family member 767, pseudogene) | SID255360601 | -1.44 | migration z between -2 and 2; enough cells | 0.52 | 3819 |
| ABCA7 (ATP binding cassette subfamily A member 7) | SID255355013 | 0.44 | migration z between -2 and 2; enough cells | 0.89 | 6522 |
| SH2D6 (SH2 domain containing 6) | SID255364816 | -0.36 | migration z between -2 and 2; enough cells | 0.79 | 5924 |
| PAAF1 (proteasomal ATPase associated factor 1) | SID255360716 | 0.31 | migration z between -2 and 2; enough cells | 0.86 | 5417 |
| FANCD2OS (FANCD2 opposite strand) | SID255362329 | -2.07 (active) | migration z below -2; enough cells | 0.35 | 5738 |
| MLXIP (MLX interacting protein) | SID255355838 | 0.39 | migration z between -2 and 2; enough cells | 0.99 | 5974 |
| PRR7 (proline rich 7, synaptic) | SID255360802 | -1.14 | migration z between -2 and 2; enough cells | 0.59 | 6047 |
| SLC9C1 | SID255364843 | 0.04 | migration z between -2 and 2; enough cells | 0.89 | 5922 |
| CDKN2B (cyclin dependent kinase inhibitor 2B) | SID255348849 | 0.86 | migration z between -2 and 2; enough cells | 0.97 | 6524 |
| PARP4 (poly(ADP-ribose) polymerase family member 4) | SID255348207 | -0.23 | migration z between -2 and 2; enough cells | 0.76 | 5306 |
| GABARAPL2 (GABA type A receptor associated protein like 2) | SID255355770 | 0.22 | migration z between -2 and 2; enough cells | 0.94 | 6292 |
| VCP (valosin containing protein) | SID255353097 | -0.58 | migration z between -2 and 2; enough cells | 0.74 | 6022 |
| LRRC37B (leucine rich repeat containing 37B) | SID255362228 | -1.49 | migration z between -2 and 2; enough cells | 0.5 | 6666 |
| SEC22A (SEC22 homolog A, vesicle trafficking protein) | SID255356862 | 0.55 | migration z between -2 and 2; enough cells | 1.03 | 6912 |
| CLTCL1 (clathrin heavy chain like 1) | SID255353425 | -0.36 | migration z between -2 and 2; enough cells | 0.79 | 6248 |
| CADPS2 (calcium dependent secretion activator 2) | SID255362095 | 1.19 | migration z between -2 and 2; enough cells | 1.19 | 5454 |
| CKB (creatine kinase B) | SID255348933 | -4.12 | under 3300 nuclei; migration not judged | 0.01 | 3072 |
| OR14J1 (olfactory receptor family 14 subfamily J member 1) | SID255365968 | -1.75 | migration z between -2 and 2; enough cells | 0.43 | 4896 |
| TWF2 (twinfilin actin binding protein 2) | SID255355769 | 0.54 | migration z between -2 and 2; enough cells | 0.91 | 5190 |
| MED29 (mediator complex subunit 29) | SID255358700 | 0.7 | migration z between -2 and 2; enough cells | 1.07 | 7934 |
| PROM2 (prominin 2) | SID255363466 | -0.13 | migration z between -2 and 2; enough cells | 0.78 | 5302 |
| LINC01600 (long independently transcribed non-coding RNA 1600) | SID255363592 | 0.6 | migration z between -2 and 2; enough cells | 1.04 | 4426 |
| THOC2 (THO complex subunit 2) | SID255359329 | -0.02 | migration z between -2 and 2; enough cells | 0.88 | 5720 |
